Some of the results follow.
biological target: OsWRKY34 (Oryza sativa, UniProt Q0JBA9 1-250); experiment: protein-binding microarray (RPBM); PBS, 2% BSA, 51.3 ng/ul salmon testes DNA, 50 uM zinc acetate, 200 nM TF, 25 C, 1 h; high values mean tight binding; details: protein: recombinant; tags: N-terminal polyhistidine and DsRed monomer fusion (pET32a); label: CyDye5-dUTP incorporated in the synthesized complementary strand; 3' TTTTT single-stranded linker to array surface; dsDNA, one strand shown
Procedure, shortened: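 In PBS with 2% BSA, salmon testes DNA and 50 µM zinc acetate, 200 nM protein was incubated on a custom Agilent array at 25 °C for 1 h and then washed off. The array had been made double-stranded by primer extension with Cy5-dUTP and blocked with 2% BSA. The proteins were transcription factors fused N-terminally to polyhistidine and DsRed, expressed in E. coli BL21-CodonPlus and purified on Ni–NTA. The binding signal is per-feature fluorescence intensity (arbitrary units) from an Axon 4000B scanner.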

By UniProt entry, the sequences of proteins in these tests, tags left out.
UniProt Q0JBA9, entry or part of it: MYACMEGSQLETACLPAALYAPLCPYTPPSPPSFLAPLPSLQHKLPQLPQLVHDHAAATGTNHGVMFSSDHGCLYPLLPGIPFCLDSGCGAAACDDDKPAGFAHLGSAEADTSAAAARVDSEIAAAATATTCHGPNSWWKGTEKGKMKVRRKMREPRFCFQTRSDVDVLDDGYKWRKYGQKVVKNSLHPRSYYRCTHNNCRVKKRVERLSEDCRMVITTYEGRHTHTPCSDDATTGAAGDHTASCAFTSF

Sequence | binding signal
ATATCACTTCACAAACATGCAAGTTCAAATTTGACTTCTACGGAGTCACCTAGTGCAG | 8400 fluorescence intensity (a.u.)
AGGTAGCCATGCTACGGCGTCTCGCTTTTCTCTTTTTTGACGGAGTCACCTAGTGCAG | 9110 fluorescence intensity (a.u.)
AGACCCATTTACATTTCGCAGCAAAGCCATCGTGTATTCACGGAGTCACCTAGTGCAG | 8320 fluorescence intensity (a.u.)
TTTCCACCTATACTTTGATGATCAGCGCTTCCTATTCCACCGGAGTCACCTAGTGCAG | 8670 fluorescence intensity (a.u.)
CCTCTTTCCTTCAACGAAGCTTCAACGACGCGCGCGTTCTCGGAGTCACCTAGTGCAG | 8090 fluorescence intensity (a.u.)
ATCACGCAAACAAGATGTGGCCCGTATCGGAGATTCCCTCCGGAGTCACCTAGTGCAG | 8760 fluorescence intensity (a.u.)
CCGCCGCGGCCGCGCGTTTCTCCTGCACGCCACGACCCTTCGGAGTCACCTAGTGCAG | 8120 fluorescence intensity (a.u.)
ATGATGCAATTGTGGGTCTAGAATTTAGGGGTTGTTTGGTCGGAGTCACCTAGTGCAG | 9790 fluorescence intensity (a.u.)
CCCACATTTTTTTGTCACTTACATGTGGGCCCCACATATTCGGAGTCACCTAGTGCAG | 8070 fluorescence intensity (a.u.)
AATCTCACTTTTCTTCACTCTCTTCTCTTACCTTTTTCACCGGAGTCACCTAGTGCAG | 12000 fluorescence intensity (a.u.)
CTATCCCAATTCCTCTTGCCACACACCACTTATCCGCTGCCGGAGTCACCTAGTGCAG | 8650 fluorescence intensity (a.u.)
TGCATTCAGTTTGATTGGTTGCTTTGTTCAGAGCTGTTTCCGGAGTCACCTAGTGCAG | 8070 fluorescence intensity (a.u.)
TTAATGTATGTTATAACATCTTGGCATCACATGTACTATCCGGAGTCACCTAGTGCAG | 9810 fluorescence intensity (a.u.)
AGGGGATGGGGATGGGGATGGAGACGGGGACTTGGAACGACGGAGTCACCTAGTGCAG | 11600 fluorescence intensity (a.u.)
GATTTTTCTTGCCATGTGGTTGATGTCTTTTAACATAGTACGGAGTCACCTAGTGCAG | 10300 fluorescence intensity (a.u.)
GCTATGTTAGTTATGAACTACTTGTGGTGTTGTTTTTAGTCGGAGTCACCTAGTGCAG | 11200 fluorescence intensity (a.u.)
AATCACGCGCTAATGGATCGTTCCTTTTTCTATGCAGACACGGAGTCACCTAGTGCAG | 10200 fluorescence intensity (a.u.)
GATGTACTGAACTGTTTTTTTTTTCGTTTTTAATTTCTAGCGGAGTCACCTAGTGCAG | 8550 fluorescence intensity (a.u.)
GCTAGCGCTGCCGCCCTACTCTTGATCCTAAATATTCATTCGGAGTCACCTAGTGCAG | 8210 fluorescence intensity (a.u.)
AGTATATAGTTGTGTTTAACCCATTCAATGAATTATTAGTCGGAGTCACCTAGTGCAG | 8180 fluorescence intensity (a.u.)
TGATGCTAACCCATTTGTCACTGTATGTCTTGCATTGTGTCGGAGTCACCTAGTGCAG | 9570 fluorescence intensity (a.u.)
GCTCCGCTGCTCTTGTGCTTCGCGCCTCGCCTGACCTCGCCGGAGTCACCTAGTGCAG | 11300 fluorescence intensity (a.u.)
AATCCCTGTCTAAACTATTTTTTGCAACTTGCGCCTTGAACGGAGTCACCTAGTGCAG | 8950 fluorescence intensity (a.u.)
CTCTGCCTCGCCTAATCCAGCGCAACACCACGCCGTCCACCGGAGTCACCTAGTGCAG | 8790 fluorescence intensity (a.u.)
TGGTGGTTTTCGTCGTCGTCGTCGTCGTCGGCTTCATATACGGAGTCACCTAGTGCAG | 10100 fluorescence intensity (a.u.)
GGGGTAAGGCAGTGTTTGCGGTGTTTGATCGGAACCTGTTCGGAGTCACCTAGTGCAG | 10100 fluorescence intensity (a.u.)
ACTGCCTTTGTTTCTTGTGTAGCACAGGGATGCAAACGTACGGAGTCACCTAGTGCAG | 10000 fluorescence intensity (a.u.)

Sequence | binding signal
AAGTGTGAATTTTCCTTTTCTTTTAGAGTTACCCTGGTCTCGGAGTCACCTAGTGCAG | 8160 fluorescence intensity (a.u.)
GCCGCCGCCTCCGCCGCCGCCGATCCCCATCCATCCCGCGCGGAGTCACCTAGTGCAG | 10500 fluorescence intensity (a.u.)
TTTACGCTTCCCCGTCTCCGCCTCCACCTCGAATCCTTCTCGGAGTCACCTAGTGCAG | 9180 fluorescence intensity (a.u.)
TCATAATGGTCACACGATGGCTATATTTCGTCGGCTTATTCGGAGTCACCTAGTGCAG | 8750 fluorescence intensity (a.u.)
GCGTTTCGCCGGAGCTCTCCTCGCATCTCACTGCCGCTCCCGGAGTCACCTAGTGCAG | 9270 fluorescence intensity (a.u.)
GGTCAAATTTCTTCGGCGATAAGCTACGTGCCTATATATACGGAGTCACCTAGTGCAG | 8280 fluorescence intensity (a.u.)
AACGTTTATCCGCTCATACATAGATGTTGGCGTGTTTTTGCGGAGTCACCTAGTGCAG | 8930 fluorescence intensity (a.u.)
CATATAGTAGCGGTGGTGTGGAGAGTGTTTGTATTTCTGTCGGAGTCACCTAGTGCAG | 8210 fluorescence intensity (a.u.)
CTCCCAACGGTTATTTTCAAATTTGAACGGTCAAATAGCCCGGAGTCACCTAGTGCAG | 9460 fluorescence intensity (a.u.)
GGAGCACTTTTATCCCTTATTGGGGTTGGTATTCTGGAGTCGGAGTCACCTAGTGCAG | 10400 fluorescence intensity (a.u.)
ACATATTTCTTGTTGTTTGTGCGCTGATGTACATCACTTCCGGAGTCACCTAGTGCAG | 14600 fluorescence intensity (a.u.)
GTCAACTAATAATAAACTGACGGGAGGGGCATGGAATAAACGGAGTCACCTAGTGCAG | 8640 fluorescence intensity (a.u.)
GTTGTTTTTATCTTTACTTTTTTTTTGGCAAATTTATAGCCGGAGTCACCTAGTGCAG | 10400 fluorescence intensity (a.u.)
GACGCCTCGCTATTCTCGTCACACATTCGTTTTCCATCCTCGGAGTCACCTAGTGCAG | 10700 fluorescence intensity (a.u.)
TTTTTTTCGCCCTTCTTTACTGGTTTTTTGTTTTCTTATCCGGAGTCACCTAGTGCAG | 10500 fluorescence intensity (a.u.)
GACGCCCAAATCCCATCGCCTCCAATCCTGTCTACAGACGCGGAGTCACCTAGTGCAG | 8780 fluorescence intensity (a.u.)
TCATGGGAGCAATTGCGCGATGTTTTTGTTCTTAACTTTCCGGAGTCACCTAGTGCAG | 8050 fluorescence intensity (a.u.)
CATACCACTCCCGTCGGTTTTTCTGTCATCCTCTCTCACGCGGAGTCACCTAGTGCAG | 8680 fluorescence intensity (a.u.)
GGAGATCCTGAGGCAGCGGGGAGAGGGGAGGTGGGCGATGCGGAGTCACCTAGTGCAG | 10500 fluorescence intensity (a.u.)
GCCAAACTCATCACCTGCCAAGCCCATAGCATGTGTTCCACGGAGTCACCTAGTGCAG | 8760 fluorescence intensity (a.u.)
GAGAGCTTTGCGGCGGGCATGCGGGTGGGGATTCACCGCGCGGAGTCACCTAGTGCAG | 10600 fluorescence intensity (a.u.)
TCCTGGCCCATTTTCATTCACTCAGATGGTCTCATATATCCGGAGTCACCTAGTGCAG | 8440 fluorescence intensity (a.u.)
CTGTTGCTCTCAACGACAATACATGTCTCCATACCACATCCGGAGTCACCTAGTGCAG | 8160 fluorescence intensity (a.u.)
TCCCTGATCATTCCTGGCTGGTTCGTACGTTGTGATTGATCGGAGTCACCTAGTGCAG | 10300 fluorescence intensity (a.u.)
CGGTCTCGGTCTCCGCCTCCCGCGCCGCGGCCACGCCATGCGGAGTCACCTAGTGCAG | 8150 fluorescence intensity (a.u.)
TCTAACAATATTGTTCTGTGTCAACAAAGATCTTGTCACTCGGAGTCACCTAGTGCAG | 8530 fluorescence intensity (a.u.)
TATCTCCTCGTCTCCTCTCTATCGCCGCACGCGCTTCCTCCGGAGTCACCTAGTGCAG | 11700 fluorescence intensity (a.u.)

2 entries from above, reformatted.
Sequence	binding signal
AAGTGTGAATTTTCCTTTTCTTTTAGAGTTACCCTGGTCTCGGAGTCACCTAGTGCAG	8160 fluorescence intensity (a.u.)
GCCGCCGCCTCCGCCGCCGCCGATCCCCATCCATCCCGCGCGGAGTCACCTAGTGCAG	10500 fluorescence intensity (a.u.)

— PMC7819943, “Rice protein-binding microarrays: a tool to detect cis-acting elements near promoter regions in rice”
